The values below come from article PMC3690481.

This assay deals with T1, endogenous SHARPIN (human (endogenous in HEK 293ET)) (UniProt Q9H0F6).
T1 sequence: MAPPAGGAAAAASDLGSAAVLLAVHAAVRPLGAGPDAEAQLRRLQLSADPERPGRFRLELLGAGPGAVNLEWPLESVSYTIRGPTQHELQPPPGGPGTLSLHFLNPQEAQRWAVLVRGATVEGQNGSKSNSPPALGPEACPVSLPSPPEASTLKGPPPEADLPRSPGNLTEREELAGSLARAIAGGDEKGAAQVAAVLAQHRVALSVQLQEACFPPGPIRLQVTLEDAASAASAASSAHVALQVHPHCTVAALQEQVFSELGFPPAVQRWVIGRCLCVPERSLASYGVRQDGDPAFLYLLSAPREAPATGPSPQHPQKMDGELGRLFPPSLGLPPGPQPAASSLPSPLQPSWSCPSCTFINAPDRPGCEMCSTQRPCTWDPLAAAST
The assay is described as follows: co-IP; IP of endogenous SHARPIN, unstimulated and after TNFα (100 ng/ml); western blot.

These are yes or no findings as the source states them, for the method shown. Binding seen in cells or lysates may run through a third protein. Binding calls can cover weak binding; strength is not graded here.

On to endogenous TNFR1 (receptor), for which the binding entry is on record as “binds”.
